The subject of this test is CD2F1 mice, L1210 leukemia ip, survival T/C. Description: NCI In Vivo Anticancer Drug Screen. Data for tumor model L1210 Leukemia (intraperitoneal) in CD2F1 (CDF1) mice. The note with it: T/C endpoint: mean survival time, higher T/C = longer survival. The procedure, abridged: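 Mice carrying a transplanted tumor received test compound or vehicle alone. The value is the measurement in the treated group divided by that in the vehicle-treated control group.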

[1] abbreviates: dose: 400.0 mg/kg/injection, schedule: Q04DX003 (ip), vehicle: saline with Tween-80.
Where [2] appears, read: dose: 200.0 mg/kg/injection, schedule: Q01DX009 (ip), vehicle: saline with Tween-80.
[3] abbreviates: dose: 150.0 mg/kg/injection, schedule: Q01DX001 (ip), vehicle: other.
[4] abbreviates: dose: 300.0 mg/kg/injection, schedule: Q01DX001 (ip), vehicle: other.
The mark [5] stands for this setting: dose: 400.0 mg/kg/injection, schedule: Q01DX001 (ip), vehicle: saline with Tween-80.
Setting [6] is: dose: 50.0 mg/kg/injection, schedule: Q04DX002 (ip), vehicle: saline with Tween-80.
The mark [7] stands for this setting: dose: 200.0 mg/kg/injection, schedule: Q04DX003 (ip), vehicle: saline with Tween-80.
The mark [8] stands for this setting: dose: 100.0 mg/kg/injection, schedule: Q04DX003 (ip), vehicle: saline with Tween-80.
Where [9] appears, read: dose: 200.0 mg/kg/injection, schedule: Q01DX001 (ip), vehicle: saline.
The mark [10] stands for this setting: dose: 200.0 mg/kg/injection, schedule: Q01DX001 (ip), vehicle: saline with Tween-80.
Setting [11] is: dose: 400.0 mg/kg/injection, schedule: Q01DX009 (ip), vehicle: saline with Tween-80.
The mark [12] stands for this setting: dose: 50.0 mg/kg/injection, schedule: Q04DX003 (ip), vehicle: saline with Tween-80.

The list shows only some results of the screen, not a fair sample: it is rich in T/C values a quarter to a half above the control, in often repeated tests (any T/C) and in doses without a T/C. Further doses and runs are listed elsewhere. T/C: endpoint of the treated group in % of that of the vehicle group. Some entries give survivors of the animals treated and no T/C: the source files T/C as zero there, which appears to mark a toxic dose or a test without result, not a measured value. Some survivor counts are full or nearly so, which does not show that the dose was tolerated: survival well below the control is almost never listed, so the zero probably covers shortened survival too. Counts of survivors are from the toxicity check (mostly the fifth day) where no day follows; animals may have died later. Schedules are NCI's codes, read here as Q, the interval in days (D) or hours (H), X, the number of doses. Where survival is the endpoint, this PubChem deposit counts one and a half times the control or more as active, and values a quarter to a half above the control carry no call in these data; other NCI protocols may use other cut-offs.

In the case of `O=C(NC(CSCc1ccccc1)C(=O)O)OCc1ccccc1` (stereo not given), the survivor count under setting [1] is reported as 3 of 6.
As to `O=c1cc(-c2ccccc2)nc(N[N+](=O)[O-])[nH]1`, the survivor count under setting [1] is 3 of 6.
As to `O=C(Nc1c[nH]c(=O)[nH]c1=O)C(Cl)Cl`, the survivor count (dose: 400.0 mg/kg/injection, schedule: Q04DX003 (ip), vehicle: other) is given as 2 of 6.
With `CCOC(=O)C(O)(CC)CCC(C)C` (stereo not given), the survivor count under setting [1] is reported as 0 of 6.
For the compound `CCC(=O)OCCn1c2ccccc2c2c(C)c3cnccc3c(C)c21`, the T/C under setting [2] is 141 % of control.
Consider `OCC#CCOCC(O)CCl` (stereo not given), for which the survivor count (dose: 400.0 mg/kg/injection, schedule: Q01DX009 (ip), vehicle: water) was 0 of 6.
Consider `COc1cc2nc(C(O)C(O)c3nc4cc(OC)c(OC)cc4[nH]3)[nH]c2cc1OC` (stereo not given), for which the survivor count under setting [1] is 6 of 6.
As for `O=C1CC=C2C3CC4N(CCC45c4ccccc4N1C25)C/C3=C\CBr` (stereo not given), the survivor count (dose: 75.0 mg/kg/injection, schedule: Q01DX001 (ip), vehicle: other) was 0 of 6; the survivor count under setting [3] was 0 of 6; the survivor count under setting [4] is on record as 0 of 6.
Regarding `CCCCCCCCCCCCCCCC[N+]1(CCC)CCSCC1`, the survivor count under setting [5] was 0 of 6.
Consider `NC(CSS(=O)(=O)O)=NCCc1cccs1`, for which, under setting [6], the survivor count is recorded as 0 of 3.
Turning to `COC(=O)Nc1cccc(OS(=O)(=O)N(C)C)c1`, the survivor count was 4 of 6 under setting [7] and 0 of 6 under setting [1].
On to `O=P(Oc1ccc(OP(=O)(N2CC2)N2CC2)cc1)(N1CC1)N1CC1`, for which the T/C (dose: 88.0 mg/kg/injection, schedule: Q01DX001 (ip), vehicle: saline) is 136 % of control.
As for `Cn1c(C(O)c2cccnc2)c(CN2CCCCC2)c2ccccc21` (stereo not given), the survivor count under setting [5] was 1 of 3.
Regarding `OC1CCC2=C(C1)C1CCC2C1` (stereo not given), the survivor count is, setting by setting: under setting [8], 6 of 6; under setting [7], 3 of 6; under setting [1], 1 of 6.
Take `CCNCc1cc(Nc2nc(NC3CCC(N(C)C)CC3)c3ccccc3n2)ccc1OC` (stereo not given): the survivor count is reported as 0 of 6 (dose: 100.0 mg/kg/injection, schedule: Q01DX001 (ip), vehicle: saline); 0 of 6 under setting [9]; 0 of 6 (dose: 400.0 mg/kg/injection, schedule: Q01DX001 (ip), vehicle: saline).
Consider `C1=C[S+](c2ccccc2)C(c2ccccc2)c2ccccc21` (stereo not given), for which the survivor count (dose: 50.0 mg/kg/injection, schedule: Q04DX002 (ip), vehicle: Klucel (hydroxypropylcellulose) (HPC)) is given as 4 of 6.
For `CC(C)C(=O)c1ccco1`, the survivor count was 2 of 6 under setting [8], 0 of 6 under setting [7] and 0 of 6 under setting [1].
As to `NCc1ccc(OCc2nc(N)nc(N)c2-c2ccc(Cl)c(Cl)c2)cc1`, the survivor count under setting [5] is given as 0 of 6.
Turning to `Cc1ccnc(OCCCCCNCCS)c1`, the survivor count (dose: 300.0 mg/kg/injection, schedule: Q01DX001 (ip), vehicle: saline) is given as 0 of 6.
On to `COc1ccccc1NC1=NCCO1`, for which the survivor count runs as follows: under setting [10], 1 of 6; under setting [5], 0 of 6.
`CC(=O)OCC1OC(OC(C)=O)C(NC(=O)N(CCSCCCl)N=O)C(OC(C)=O)C1OC(C)=O` (stereo not given): the survivor count was 3 of 6 (dose: 12.5 mg/kg/injection, schedule: Q01DX001 (ip), vehicle: distilled water + Tween-80); 4 of 6 (dose: 25.0 mg/kg/injection, schedule: Q01DX001 (ip), vehicle: distilled water + Tween-80); 0 of 6 (dose: 50.0 mg/kg/injection, schedule: Q01DX001 (ip), vehicle: distilled water + Tween-80); 0 of 6 (dose: 100.0 mg/kg/injection, schedule: Q01DX001 (ip), vehicle: distilled water + Tween-80).
Turning to `OC(c1ccccc1)(c1ccccc1)c1ccccc1` (tested in a mixture with another compound), the survivor count is 6 of 6 (dose: 100.0 mg/kg/injection, schedule: Q01DX009 (ip), vehicle: saline with Tween-80); 6 of 6 under setting [2]; 6 of 6 under setting [11].
On to `C=CCC(Cc1ccccc1)C1=NC(C)(C)CC(C)O1` (stereo not given), for which, under setting [5], the survivor count is reported as 0 of 6.
In the case of `O=C(O)C(CSC(c1ccccc1)(c1ccccc1)c1ccccc1)NC(c1ccccc1)(c1ccccc1)c1ccccc1` (stereo not given), the survivor count is given as 0 of 6 under setting [3] and 0 of 6 under setting [4].
`NC(N)=NC(N)=Nc1ccc(Cl)cc1`: under setting [11], the survivor count is 0 of 6.
Regarding `c1ccc(C[n+]2ccc3ccccc3c2)cc1`, the survivor count reads like this: under setting [12], 6 of 6; under setting [8], 1 of 6; under setting [7], 0 of 6.
As for `O/N=C1\CN2CCC1CC2`, the survivor count was 2 of 6 under setting [10] and 0 of 6 under setting [5].
With `CC(C)(C)CC(C)(C)c1ccc(Oc2ccc([N+](=O)[O-])cc2S(=O)(=O)O)cc1`, the survivor count runs as follows: under setting [6], 3 of 3; (dose: 100.0 mg/kg/injection, schedule: Q04DX002 (ip), vehicle: saline with Tween-80) 3 of 3.
Regarding `CC(C)=CBr`, the survivor count (dose: 400.0 mg/kg/injection, schedule: Q04DX003 (ip), vehicle: acetone) was 4 of 6.
On to `CCC(C)[Se][Se]C(C)CC` (stereo not given), for which the survivor count runs as follows: under setting [12], 6 of 6; under setting [8], 0 of 6.
Turning to `CC1CCS(=O)(=O)CC1.[Cl][Hg][Cl]`, the survivor count is recorded as 3 of 6 (dose: 2.5 mg/kg/injection, schedule: Q04DX003 (ip), vehicle: saline); 1 of 6 (dose: 5.0 mg/kg/injection, schedule: Q04DX003 (ip), vehicle: saline with Tween-80); 0 of 6 (dose: 10.0 mg/kg/injection, schedule: Q04DX003 (ip), vehicle: saline with Tween-80); 0 of 6 (dose: 20.0 mg/kg/injection, schedule: Q04DX003 (ip), vehicle: saline with Tween-80); 0 of 6 under setting [8]; 0 of 6 under setting [7]. Further, under setting [1], the survivor count was 0 of 6.
Take `CN(CCCOS(C)(=O)=O)CCCN(C)CCCOS(C)(=O)=O`: the T/C (dose: 150.0 mg/kg/injection, schedule: Q01DX001 (ip), vehicle: saline) was 127 % of control and the T/C under setting [9] was 132 % of control.

The values above are taken from PubChem BioAssay AID256 (DTP/NCI, 2004).
